The target in experiment [1] is DDX3X-myc (HeLa cells) (UniProt O00571). The experiment in a line: affinity purification with mass spectrometry; as a6, but HeLa cells treated with GSK1016790A before lysis.
Experiment [2] shares this target. The experiment in a line: affinity purification with mass spectrometry; HeLa cells transfected with TRPV4 and DDX3X-myc, isotonic control media; lysate with anti-Myc antibody overnight at 4 C, protein G beads, on-bead trypsin digestion, MALDI-TOF-MS.

Amino acid sequences for entries named in this document (tags omitted).
UniProt O00571: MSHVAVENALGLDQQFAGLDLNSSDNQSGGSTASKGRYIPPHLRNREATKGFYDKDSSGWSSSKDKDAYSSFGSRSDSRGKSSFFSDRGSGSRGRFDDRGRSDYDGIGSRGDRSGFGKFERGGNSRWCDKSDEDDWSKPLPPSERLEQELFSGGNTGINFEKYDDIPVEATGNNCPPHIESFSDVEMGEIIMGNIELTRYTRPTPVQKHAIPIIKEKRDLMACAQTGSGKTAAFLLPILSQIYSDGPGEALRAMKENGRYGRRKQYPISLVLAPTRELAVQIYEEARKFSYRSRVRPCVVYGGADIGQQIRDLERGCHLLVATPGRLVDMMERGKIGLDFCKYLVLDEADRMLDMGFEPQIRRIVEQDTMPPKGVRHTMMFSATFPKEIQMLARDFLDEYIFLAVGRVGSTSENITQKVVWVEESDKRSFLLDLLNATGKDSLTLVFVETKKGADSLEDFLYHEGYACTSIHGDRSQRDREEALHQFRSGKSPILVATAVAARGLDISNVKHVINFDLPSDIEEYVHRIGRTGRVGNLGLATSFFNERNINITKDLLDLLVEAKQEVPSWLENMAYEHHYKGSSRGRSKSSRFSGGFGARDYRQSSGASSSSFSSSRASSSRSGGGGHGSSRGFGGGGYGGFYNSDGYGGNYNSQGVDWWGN
UniProt Q9HBA0: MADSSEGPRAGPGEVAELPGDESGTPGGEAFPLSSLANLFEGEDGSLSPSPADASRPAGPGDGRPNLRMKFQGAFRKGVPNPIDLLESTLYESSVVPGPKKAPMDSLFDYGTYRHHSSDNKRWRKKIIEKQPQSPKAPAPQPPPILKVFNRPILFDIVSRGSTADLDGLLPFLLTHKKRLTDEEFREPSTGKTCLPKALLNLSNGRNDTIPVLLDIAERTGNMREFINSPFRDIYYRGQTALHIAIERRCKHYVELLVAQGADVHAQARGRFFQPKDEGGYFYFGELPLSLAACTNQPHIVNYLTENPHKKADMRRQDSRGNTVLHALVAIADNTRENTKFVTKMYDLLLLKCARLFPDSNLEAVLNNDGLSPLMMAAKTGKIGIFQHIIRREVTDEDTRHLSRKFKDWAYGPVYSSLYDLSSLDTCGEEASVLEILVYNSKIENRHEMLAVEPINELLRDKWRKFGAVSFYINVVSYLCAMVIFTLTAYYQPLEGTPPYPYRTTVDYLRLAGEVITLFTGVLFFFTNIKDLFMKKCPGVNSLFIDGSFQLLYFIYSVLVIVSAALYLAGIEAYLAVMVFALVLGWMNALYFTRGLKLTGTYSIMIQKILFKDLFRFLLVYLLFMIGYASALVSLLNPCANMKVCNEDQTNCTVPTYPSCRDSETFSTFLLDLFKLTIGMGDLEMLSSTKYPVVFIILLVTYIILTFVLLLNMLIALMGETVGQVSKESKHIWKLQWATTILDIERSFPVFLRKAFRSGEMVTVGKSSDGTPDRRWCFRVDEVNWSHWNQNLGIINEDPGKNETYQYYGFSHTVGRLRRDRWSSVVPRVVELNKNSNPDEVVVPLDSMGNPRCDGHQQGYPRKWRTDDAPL

No constants are given. Whether binding was seen depends on the method and setting. In cells and extracts the contact can be indirect. These calls come from enrichment with a bait or labelling near it, and not all partners need be listed. For some assays here: A no says only that the protein was not detected with the bait.

“TRPV4 (overexpressed in HeLa cells for the DDX3X pull-down with mass spectrometry) (from UniProt Q9HBA0 1-871) (receptor)”: the binding result is “no binding (only cells treated with GSK1016790A)” with DDX3X-myc (HeLa cells) [1] and “binds” with DDX3X-myc (HeLa cells) [2].

For the origin of these results see paper PMC5998047.
